# Laboratory results as given in the supplement of paper PMC8728848.
# The list shows a part of the results.
# Columns and labels:
# Assay in all cases: glycan array binding signal (z-score within array); higher = stronger binding
# Details in all cases: glycan notation: IUPAC condensed, linker removed
# [1] = molecular target: GlcNAc(b1-3)Gal(b1-4)GlcNAc(b1-2)[GlcNAc(b1-3)Gal(b1-4)GlcNAc(b1-6)]Man(a1-6)[GlcNAc(b1-3)Gal(b1-4)GlcNAc(b1-2)Man(a1-3)]Man(b1-4)GlcNAc(b1-4)GlcNAc
# Procedure, shortened: (§1)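 Columns mapping to the same glycan were averaged after glycan names were converted to IUPAC-condensed notation. The data come from 3228 arrays in the Consortium for Functional Glycomics database, limited to those with an available protein sequence. Binding is reported as a within-array Z-score averaged across arrays of one protein sequence and across linkers.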
# [2] = molecular target: GlcNAc(b1-3)Gal(b1-4)GlcNAc(b1-3)Gal(b1-4)GlcNAc
# Procedure, shortened: as §1
# [3] = molecular target: GlcNAc(b1-3)Gal(b1-4)GlcNAc(b1-3)Gal(b1-4)GlcNAc(b1-2)Man(a1-3)[GlcNAc(b1-3)Gal(b1-4)GlcNAc(b1-3)Gal(b1-4)GlcNAc(b1-2)Man(a1-6)]Man(b1-4)GlcNAc(b1-4)GlcNAc
# Procedure, shortened: as §1
# [4] = molecular target: GlcNAc(b1-3)Gal(b1-4)GlcNAc(b1-3)Gal(b1-4)GlcNAc(b1-2)Man(a1-3)[GlcNAc(b1-3)Gal(b1-4)GlcNAc(b1-3)Gal(b1-4)GlcNAc(b1-2)Man(a1-6)]Man(b1-4)GlcNAc(b1-4)[Fuc(a1-6)]GlcNAc
# Procedure, shortened: as §1
# [5] = molecular target: GlcNAc(b1-3)Gal(b1-4)GlcNAc(b1-3)Gal(b1-4)GlcNAc(b1-2)[GlcNAc(b1-3)Gal(b1-4)GlcNAc(b1-3)Gal(b1-4)GlcNAc(b1-6)]Man(a1-6)[GlcNAc(b1-3)Gal(b1-4)GlcNAc(b1-3)Gal(b1-4)GlcNAc(b1-2)Man(a1-3)]Man(b1-4)GlcNAc(b1-4)[Fuc(a1-6)]GlcNAc
# Procedure, shortened: as §1
# [6] = molecular target: GlcNAc(b1-3)Gal(b1-4)GlcNAc(b1-3)Gal(b1-4)GlcNAc(b1-3)Gal(b1-4)GlcNAc(b1-2)Man(a1-3)[GlcNAc(b1-3)Gal(b1-4)GlcNAc(b1-3)Gal(b1-4)GlcNAc(b1-3)Gal(b1-4)GlcNAc(b1-2)Man(a1-6)]Man(b1-4)GlcNAc(b1-4)GlcNAc
# Procedure, shortened: as §1
# [7] = molecular target: GlcNAc(b1-3)Gal(b1-4)GlcNAc(b1-3)Gal(b1-4)GlcNAc(b1-3)Gal(b1-4)GlcNAc(b1-2)Man(a1-3)[GlcNAc(b1-3)Gal(b1-4)GlcNAc(b1-3)Gal(b1-4)GlcNAc(b1-3)Gal(b1-4)GlcNAc(b1-2)Man(a1-6)]Man(b1-4)GlcNAc(b1-4)[Fuc(a1-6)]GlcNAc
# Procedure, shortened: as §1
# [8] = molecular target: GlcNAc(b1-3)Gal(b1-4)GlcNAc(b1-3)Gal(b1-4)GlcNAc(b1-3)Gal(b1-4)GlcNAc(b1-2)[GlcNAc(b1-3)Gal(b1-4)GlcNAc(b1-3)Gal(b1-4)GlcNAc(b1-3)Gal(b1-4)GlcNAc(b1-6)]Man(a1-6)[GlcNAc(b1-3)Gal(b1-4)GlcNAc(b1-3)Gal(b1-4)GlcNAc(b1-3)Gal(b1-4)GlcNAc(b1-2)Man(a1-3)]Man(b1-4)GlcNAc(b1-4)[Fuc(a1-6)]GlcNAc
# Procedure, shortened: as §1
# [9] = molecular target: GlcNAc(b1-3)Gal(b1-4)GlcNAc(b1-3)Gal(b1-4)GlcNAc(b1-3)Gal(b1-4)GlcNAc(b1-3)Gal(b1-4)GlcNAc(b1-2)Man(a1-3)[GlcNAc(b1-3)Gal(b1-4)GlcNAc(b1-3)Gal(b1-4)GlcNAc(b1-3)Gal(b1-4)GlcNAc(b1-3)Gal(b1-4)GlcNAc(b1-2)Man(a1-6)]Man(b1-4)GlcNAc(b1-4)GlcNAc
# Procedure, shortened: as §1
# [10] = molecular target: GlcNAc(b1-3)Gal(b1-4)GlcNAc(b1-3)Gal(b1-4)GlcNAc(b1-3)Gal(b1-4)GlcNAc(b1-3)Gal(b1-4)GlcNAc(b1-2)Man(a1-3)[GlcNAc(b1-3)Gal(b1-4)GlcNAc(b1-3)Gal(b1-4)GlcNAc(b1-3)Gal(b1-4)GlcNAc(b1-3)Gal(b1-4)GlcNAc(b1-2)Man(a1-6)]Man(b1-4)GlcNAc(b1-4)[Fuc(a1-6)]GlcNAc
# Procedure, shortened: as §1
# [11] = molecular target: GlcNAc(b1-3)Gal(b1-4)GlcNAc(b1-3)Gal(b1-4)GlcNAc(b1-3)Gal(b1-4)GlcNAc(b1-3)Gal(b1-4)GlcNAc(b1-2)[GlcNAc(b1-3)Gal(b1-4)GlcNAc(b1-3)Gal(b1-4)GlcNAc(b1-3)Gal(b1-4)GlcNAc(b1-3)Gal(b1-4)GlcNAc(b1-6)]Man(a1-6)[GlcNAc(b1-3)Gal(b1-4)GlcNAc(b1-3)Gal(b1-4)GlcNAc(b1-3)Gal(b1-4)GlcNAc(b1-3)Gal(b1-4)GlcNAc(b1-2)Man(a1-3)]Man(b1-4)GlcNAc(b1-4)[Fuc(a1-6)]GlcNAc
# Procedure, shortened: as §1
# [12] = molecular target: GlcNAc(b1-3)Gal(b1-4)GlcNAc(b1-3)Gal(b1-4)GlcNAc(b1-3)GalNAc
# Procedure, shortened: as §1
# [13] = molecular target: GlcNAc(b1-3)Gal(b1-4)GlcNAc(b1-3)GalNAc
# Procedure, shortened: as §1
# [14] = molecular target: GlcNAc(b1-3)Gal(b1-4)GlcNAc(b1-3)[GlcNAc(b1-3)Gal(b1-4)GlcNAc(b1-3)]GalNAc
# Procedure, shortened: as §1
# [15] = molecular target: GlcNAc(b1-3)Gal(b1-4)GlcNAc(b1-6)[Gal(b1-3)]GalNAc
# Procedure, shortened: as §1
# [16] = molecular target: GlcNAc(b1-3)Gal(b1-4)GlcNAc(b1-6)[GlcNAc(b1-3)Gal(b1-3)]GalNAc
# Procedure, shortened: as §1
# [17] = molecular target: GlcNAc(b1-3)Gal(b1-4)GlcNAc(b1-6)[GlcNAc(b1-3)]Gal(b1-4)GlcNAc
# Procedure, shortened: as §1
# [18] = molecular target: GlcNAc(b1-3)GalNAc
# Procedure, shortened: as §1
# [19] = molecular target: GlcNAc(b1-3)Man
# Procedure, shortened: as §1
# [20] = molecular target: GlcNAc(b1-3)[GlcNAc(b1-4)][GlcNAc(b1-6)]GlcNAc
# Procedure, shortened: as §1
# [21] = molecular target: GlcNAc(b1-3)[GlcNAc(b1-6)]Gal(b1-4)GlcNAc
# Procedure, shortened: as §1
# [22] = molecular target: GlcNAc(b1-3)[GlcNAc(b1-6)]GalNAc
# Procedure, shortened: as §1
# [23] = molecular target: GlcNAc(b1-4)Gal(b1-4)GlcNAc
# Procedure, shortened: as §1
binder,measurement,setting,value
"Gal 10 (Homo sapiens), Q05315 (protein) MSLLPVPYTEAASLSTGSTVTIKGRPLVCFLNEPYLQVDFHTEMKEESDIVFHFQVCFGRRVVMNSREYGAWKQQVESKNMPFQDGQEFELSISVLPDKYQVMVNGQSSYTFDHRIKPEAVKMVQVWRDISLTKFNVSYLKR",glycan array binding signal (z-score),[1],1.46
same,glycan array binding signal (z-score),[2],-0.579
same,glycan array binding signal (z-score),[3],-0.042
same,glycan array binding signal (z-score),[4],-0.188
same,glycan array binding signal (z-score),[5],-0.466
same,glycan array binding signal (z-score),[6],0.482
same,glycan array binding signal (z-score),[7],1.47
same,glycan array binding signal (z-score),[8],-0.236
same,glycan array binding signal (z-score),[9],-0.375
same,glycan array binding signal (z-score),[10],0.893
same,glycan array binding signal (z-score),[11],0.079
same,glycan array binding signal (z-score),[12],-0.542
same,glycan array binding signal (z-score),[13],-0.558
same,glycan array binding signal (z-score),[14],-0.193
same,glycan array binding signal (z-score),[15],-0.388
same,glycan array binding signal (z-score),[16],-0.409
same,glycan array binding signal (z-score),[17],-0.241
same,glycan array binding signal (z-score),[18],0.05
same,glycan array binding signal (z-score),[19],-0.304
same,glycan array binding signal (z-score),[20],-0.039
same,glycan array binding signal (z-score),[21],-0.309
same,glycan array binding signal (z-score),[22],-0.018
same,glycan array binding signal (z-score),[23],-0.323

# Laid out differently: results already given.
binder | measurement | setting | value
Gal 10 (Homo sapiens), Q05315 (protein) MSLLPVPYTEAASLSTGSTVTIKGRPLVCFLNEPYLQVDFHTEMKEESDIVFHFQVCFGRRVVMNSREYGAWKQQVESKNMPFQDGQEFELSISVLPDKYQVMVNGQSSYTFDHRIKPEAVKMVQVWRDISLTKFNVSYLKR | glycan array binding signal (z-score) | [5] | -0.466
same | glycan array binding signal (z-score) | [22] | -0.018
